Laboratory results published in paper doi:10.1101/2025.07.01.662673.
Results are given in words; binding and its absence hold for the method and conditions named. Binding seen in cells or lysates may run through a third protein. Some entries that bind do so weakly or less than the wild type.

What was measured:
[1] = molecular target: T1, Kallikrein-related peptidase 8 (human) (UniProt O60259); assay: co-IP
T1 sequence: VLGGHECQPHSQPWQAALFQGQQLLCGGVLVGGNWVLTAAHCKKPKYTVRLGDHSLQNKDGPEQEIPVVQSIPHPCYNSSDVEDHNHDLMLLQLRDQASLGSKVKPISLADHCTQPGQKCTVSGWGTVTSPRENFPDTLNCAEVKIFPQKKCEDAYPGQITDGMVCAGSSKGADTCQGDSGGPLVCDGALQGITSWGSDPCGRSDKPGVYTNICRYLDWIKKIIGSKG

[2] = molecular target: T2, syndecan-4 (human (endogenous in human GECs)) (UniProt P31431); assay: co-IP
T2 sequence: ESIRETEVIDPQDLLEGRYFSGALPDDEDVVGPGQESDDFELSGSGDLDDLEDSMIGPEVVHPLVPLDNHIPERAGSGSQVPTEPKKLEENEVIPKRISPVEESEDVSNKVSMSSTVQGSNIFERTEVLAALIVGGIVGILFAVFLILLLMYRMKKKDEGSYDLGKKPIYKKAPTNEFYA

B1: syndecan-4 (protein, UniProt P31431 19-198)
chain: ESIRETEVIDPQDLLEGRYFSGALPDDEDVVGPGQESDDFELSGSGDLDDLEDSMIGPEVVHPLVPLDNHIPERAGSGSQVPTEPKKLEENEVIPKRISPVEESEDVSNKVSMSSTVQGSNIFERTEVLAALIVGGIVGILFAVFLILLLMYRMKKKDEGSYDLGKKPIYKKAPTNEFYA
- binding [1]: binds

B2: Kallikrein-related peptidase 8 (enzyme, UniProt O60259 33-260)
chain: VLGGHECQPHSQPWQAALFQGQQLLCGGVLVGGNWVLTAAHCKKPKYTVRLGDHSLQNKDGPEQEIPVVQSIPHPCYNSSDVEDHNHDLMLLQLRDQASLGSKVKPISLADHCTQPGQKCTVSGWGTVTSPRENFPDTLNCAEVKIFPQKKCEDAYPGQITDGMVCAGSSKGADTCQGDSGGPLVCDGALQGITSWGSDPCGRSDKPGVYTNICRYLDWIKKIIGSKG
- binding [2]: binds
